Here are results for 38 compounds from the supplement of paper PMC6143611.

The structures appear in SMILES notation. Counter-ions that a name gives are not always drawn. ± gives the uncertainty stated by the source. The list shows a part of the results. Baselines shift from plate to plate; read single values as rough.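 Larvae carried a heat-shock-induced fluorescent stripe in rod outer segments, set at 6 dpf; the shedding distance runs from this stripe to the outer segment tip, measured in confocal stacks, about three fish per compound. The controls got 0.2% DMSO vehicle, and the paper flagged compounds with at least a 20% change against the same-week control and p < 0.001 (Dunnett test on mixed-effects models).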

For test [1], the system named is Danio rerio larva rod photoreceptor outer segment. As to the kind of experiment: rod outer segment growth distance Dg, difference from same-week DMSO control mean; higher = more outer segment growth. Particulars: 20 µM; treatment time: 4 days (6-10 dpf).
The test system is the same in test [2]. The experiment in a line: rod outer segment shedding distance Ds, difference from same-week DMSO control mean; higher = less outer segment shedding. Particulars: 20 µM; treatment time: 4 days (6-10 dpf).

Turning to `CNC(=O)Nc1ccc(-c2nc(N3CC4CCC(C3)O4)c3cnn(C4CCC5(CC4)OCCO5)c3n2)cc1`, the “rod outer segment growth distance Dg” value in test [1] is -0.53 ± 0.17 um. In test [2], the “rod outer segment shedding distance Ds” value was -0.34 ± 0.13 um.
On the same counts, the results for `C=CCn1c(=O)c2cnc(Nc3ccc(N4CCN(C)CC4)cc3)nc2n1-c1cccc(C(C)(C)O)n1` are -0.54 ± 0.2 um and 1.16 ± 0.18 um.
With `CCN1C[C@H](C)n2c(c(O)c3c(=O)n(Cc4ccc(F)c(Cl)c4)nc(C(=O)NC)c32)C1=O`, the “rod outer segment growth distance Dg” value in test [1] was -1 ± 0.14 um. The “rod outer segment shedding distance Ds” value in test [2] turned out to be 0.47 ± 0.14 um.
In the same order, the values of `O=C(Nc1c(Cl)cncc1Cl)c1ccc(OC(F)F)c(OCC2CC2)c1` [Roflumilast] are 2.45 ± 0.3 um and -1.03 ± 0.36 um.
`CC(C)Cn1cnc2c(N)nc3ccccc3c21` [Imiquimod]: the “rod outer segment growth distance Dg” value in test [1] was determined as 0.68 ± 0.21 um. Further, the “rod outer segment shedding distance Ds” value in test [2] is -0.38 ± 0.22 um.
On the same counts, the results for `CC(C)[C@H]1C(=O)N[C@@H](CCCNC(=N)N)C(=O)NCC(=O)N[C@@H](CC(=O)O)C(=O)N[C@H](Cc2ccccc2)C(=O)N1C` [Cilengitide] are -0.81 ± 0.15 um and -0.18 ± 0.12 um.
`NC(=O)N1c2ccccc2CC(=O)c2ccccc21` [Oxcarbazepine]: the “rod outer segment growth distance Dg” value in test [1] was -0.93 ± 0.2 um. Further, the “rod outer segment shedding distance Ds” value in test [2] stood at 0.06 ± 0.24 um.
In the same order, the values of `CCCCCCCCCCC[C@@H](C[C@@H]1OC(=O)[C@H]1CCCCCC)OC(=O)[C@H](CC(C)C)NC=O` [Orlistat] are -0.68 ± 0.28 um and -0.15 ± 0.17 um.
In the case of `CC(=O)OCC(=O)[C@@]12N=C(C)O[C@@H]1C[C@H]1[C@@H]3CCC4=CC(=O)C=C[C@]4(C)[C@H]3[C@@H](O)C[C@@]12C` [Deflazacort], in test [1], the “rod outer segment growth distance Dg” value came out at 0.03 ± 0.22 um. The “rod outer segment shedding distance Ds” value in test [2] is -0.25 ± 0.31 um.
In the same order, the values of `Cn1cnc2c(F)c(Nc3ccc(Br)cc3Cl)c(C(=O)NOCCO)cc21` [Selumetinib (AZD6244)] are -0.2 ± 0.26 um and -0.51 ± 0.28 um.
In the case of `O=c1cc(-c2ccc(O)c(O)c2)oc2cc(O)cc(O)c12` [Luteolin], in test [1], the “rod outer segment growth distance Dg” value is 0.88 ± 0.26 um. Besides, the “rod outer segment shedding distance Ds” value in test [2] is -0.12 ± 0.31 um.
On the same counts, the results for `COc1ccc2cccc(CCNC(C)=O)c2c1` [Agomelatine] are -1.22 ± 0.27 um and -0.5 ± 0.34 um.
In the same order, the values of `O=C(O)[C@H]1O[C@@H](Oc2cc3oc(-c4ccccc4)cc(=O)c3c(O)c2O)[C@H](O)[C@@H](O)[C@@H]1O` [Baicalin] are 1.17 ± 0.21 um and 1.22 ± 0.36 um.
Turning to `CN(C)CC[C@H](CSc1ccccc1)Nc1ccc(S(=O)(=O)NC(=O)c2ccc(N3CCN(Cc4ccccc4-c4ccc(Cl)cc4)CC3)cc2)cc1[N+](=O)[O-]`, in test [1], the “rod outer segment growth distance Dg” value is -0.46 ± 0.23 um. In test [2], the “rod outer segment shedding distance Ds” value was -0.92 ± 0.24 um.
Take `CC[C@]12C=CCN3CC[C@@]4(c5cc([C@@]6(C(=O)OC)C[C@@H]7C[C@@H](C(C)(F)F)CN(Cc8c6[nH]c6ccccc86)C7)c(OC)cc5N(C)[C@H]4[C@@](O)(C(=O)OC)[C@@H]1OC(C)=O)[C@@H]32` [Vinflunine Tartrate]: in test [1], the “rod outer segment growth distance Dg” value worked out at 0.26 ± 0.2 um. For the same compound, in test [2], the “rod outer segment shedding distance Ds” value was 0.14 ± 0.3 um.
On to `CCOc1cc(CC(=O)N[C@@H](CC(C)C)c2ccccc2N2CCCCC2)ccc1C(=O)O` [Repaglinide], for which, in test [1], the “rod outer segment growth distance Dg” value came out at 0.36 ± 0.16 um. Also, the “rod outer segment shedding distance Ds” value in test [2] was -0.42 ± 0.2 um.
With `COCCc1ccc(OCC(O)CNC(C)C)cc1` (stereo unspecified) [Metoprolol Tartrate], the “rod outer segment growth distance Dg” value in test [1] is -0.73 ± 0.19 um. For the same compound, the “rod outer segment shedding distance Ds” value in test [2] is -1.61 ± 0.28 um.
In the case of `NS(=O)(=O)c1cc(C(=O)O)c(NCc2ccco2)cc1Cl` [Furosemide], the “rod outer segment growth distance Dg” value in test [1] is -0.19 ± 0.2 um. For the same compound, the “rod outer segment shedding distance Ds” value in test [2] was -0.26 ± 0.14 um.
For `O=C(O)/C=C/c1ccc(O)c(O)c1` [Caffeic Acid], the “rod outer segment growth distance Dg” value in test [1] was -0.77 ± 0.41 um. For the same compound, the “rod outer segment shedding distance Ds” value in test [2] was -0.12 ± 0.4 um.
In the same order, the values of `Cc1ccc(N(CC2=NCCN2)c2cccc(O)c2)cc1` [Phentolamine Mesylate] are 0.87 ± 0.29 um and -0.19 ± 0.31 um.
`CNC1CCCN(c2c(F)cc3c(=O)c(C(=O)O)cn(C4CC4)c3c2OC)C1` (stereo unspecified) [Balofloxacin]: the “rod outer segment growth distance Dg” value in test [1] is -0.85 ± 0.21 um. Moreover, in test [2], the “rod outer segment shedding distance Ds” value was -0.05 ± 0.24 um.
Turning to `C/C=C1\[C@H]2C=C(C)C[C@]1(N)c1ccc(=O)[nH]c1C2` [(-)-Huperzine A (HupA)], the “rod outer segment growth distance Dg” value in test [1] turned out to be 0.4 ± 0.32 um. For the same compound, the “rod outer segment shedding distance Ds” value in test [2] was -0.02 ± 0.41 um.
As for `CNC(=O)c1ccc2cc([C@@]3(O)CCn4cncc43)ccc2c1` [TAK-700 (Orteronel)], in test [1], the “rod outer segment growth distance Dg” value was -0.17 ± 0.18 um. The “rod outer segment shedding distance Ds” value in test [2] was -1.88 ± 0.27 um.
Turning to `COc1ccc(C2CC(=O)c3c(O)cc(OC4OC(COC5OC(C)C(O)C(O)C5O)C(O)C(O)C4O)cc3O2)cc1OC` (stereo unspecified) [Methyl-Hesperidin], in test [1], the “rod outer segment growth distance Dg” value was -0.29 ± 0.26 um. Further, the “rod outer segment shedding distance Ds” value in test [2] is 0.55 ± 0.32 um.
In the same order, the values of `C[C@H]1O[C@H](O[C@H]2[C@H](O)[C@@H](O)[C@@H](O[C@@H]([C@H](O)[C@@H](O)C=O)[C@H](O)CO)O[C@@H]2CO)[C@H](O)[C@@H](O)[C@@H]1N[C@H]1C=C(CO)[C@@H](O)[C@H](O)[C@H]1O` [Acarbose] are 0.54 ± 0.23 um and 0.35 ± 0.23 um.
For `COc1cccc(-c2cc(=O)c3ccccc3o2)c1N`, the “rod outer segment growth distance Dg” value in test [1] was -0.61 ± 0.2 um. Moreover, the “rod outer segment shedding distance Ds” value in test [2] was -0.24 ± 0.18 um.
On to `CC(=O)N1CCN(CCOc2ccc(C3CCN(C4=Nn5c(nnc5C(F)(F)F)CC4)CC3)cc2)CC1`, for which the “rod outer segment growth distance Dg” value in test [1] is -1.12 ± 0.19 um. Besides, the “rod outer segment shedding distance Ds” value in test [2] was -0.2 ± 0.13 um.
As for `COc1cccc(Nc2c(C(N)=O)cnc3c(C)cc(S(=O)(=O)c4cccc(C(=O)N(C)C)c4)cc23)c1`, the “rod outer segment growth distance Dg” value in test [1] was -0.49 ± 0.18 um. Besides, the “rod outer segment shedding distance Ds” value in test [2] was -0.24 ± 0.1 um.
In the same order, the values of `O=C(O)C1=C[C@@H](O)[C@@H](O)[C@H](O)C1` [Shikimic Acid] are 0.37 ± 0.24 um and 0.32 ± 0.28 um.
Regarding `NC[C@H]1CC[C@H](C(=O)O)CC1` [Tranexamic Acid], the “rod outer segment growth distance Dg” value in test [1] was 0.86 ± 0.22 um. For the same compound, in test [2], the “rod outer segment shedding distance Ds” value turned out to be 1.59 ± 0.29 um.
On the same counts, the results for `COc1ccccc1S(=O)(=O)Nc1ccc2c(c1)CN(C)C(=O)N2` are 0.43 ± 0.21 um and -0.44 ± 0.22 um.
On the same counts, the results for `Cc1nc(C(=O)NCC(=O)O)c(O)c2ccc(Oc3ccccc3)cc12` are -0.03 ± 0.24 um and -0.74 ± 0.27 um.
In the same order, the values of `CC(C)CN(C[C@@H](O)[C@H](Cc1ccccc1)NC(=O)O[C@H]1CCOC1)S(=O)(=O)c1ccc(N)cc1` [Amprenavir] are -0.54 ± 0.3 um and -0.44 ± 0.24 um.
`Cc1ccc(C(=O)Cn2c3c(sc2=N)CCCC3)cc1` [Pifithrin-α (PFTα)]: in test [1], the “rod outer segment growth distance Dg” value was -3.04 ± 0.63 um. Also, the “rod outer segment shedding distance Ds” value in test [2] was -0.91 ± 0.52 um.
In the same order, the values of `Cn1c(=O)n(-c2ccc(C(C)(C)C#N)cc2)c2c3cc(-c4cnc5ccccc5c4)ccc3ncc21` [BEZ235 (NVP-BEZ235, Dactolisib)] are -0.28 ± 0.3 um and -1.34 ± 0.34 um.
In the case of `CCN(CC)CC(=O)Nc1c(C)cccc1C` [Lidocaine], the “rod outer segment growth distance Dg” value in test [1] was -0.28 ± 0.32 um. The “rod outer segment shedding distance Ds” value in test [2] was -0.04 ± 0.19 um.
On to `Nc1ccc(O)c(C(=O)O)c1` [Mesalamine], for which the “rod outer segment growth distance Dg” value in test [1] is -0.24 ± 0.19 um. For the same compound, the “rod outer segment shedding distance Ds” value in test [2] worked out at 0.41 ± 0.17 um.
In the same order, the values of `CCN(C(=O)c1c(O)c2c(Cl)cccc2n(C)c1=O)c1ccccc1` [Laquinimod] are -0.16 ± 0.13 um and 0.33 ± 0.12 um.
